Data as given in PubChem BioAssay AID1224830 (NIAID, 2016)

- Test: 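Regulators of TLR4 signalling towards TNF-alpha in macrophage-like cells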 (primary screen)
- Cells: human THP-1 monocytic leukaemia cells, TNF dual-luciferase reporter clone, PMA-differentiated to macrophage-like cells
- Reagents: siRNA pool against human genes, 50 nM
- Time to read-out: LPS for 4 h, given about 3 days after siRNA transfection
- Treatment: bacterial LPS (TLR4 ligand), 10 ng/ml
- Measurement: 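Ratio of firefly to renilla light, scaled to the plate median and expressed as a robust z-score per replicate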
- Scale: TNF reporter robust z-score: higher = stronger TNF reporter response to LPS
- Rule for the call: 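a well is active when its z-score exceeds 2.8 or falls below -1.5; control wells carry no call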
In all, the deposit lists about 18,000 reagents; shown is a random part of them. About 2,900 of all reagents (16%) count as active. 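Calls are made per well; low scores hint the gene aids the LPS response, high scores that it dampens it.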 Unmarked entries are inactive. Repeated entries: four replicate wells of each siRNA pool.

IFNA7 showed TNF reporter robust z-score -0.39.
IFNA7 scored TNF reporter robust z-score -0.6.
Against IFNA7, the values are TNF reporter robust z-score -0.46.
Depletion of IFNA7 resulted in: TNF reporter robust z-score -0.66.
For CDC42BPB, the values are TNF reporter robust z-score -1.22.
With knock-down of CDC42BPB, the screen gave TNF reporter robust z-score -1.2.
With knock-down of CDC42BPB the results were TNF reporter robust z-score 0.14.
Silencing of CDC42BPB resulted in: TNF reporter robust z-score 0.2.
Against ZNHIT6, the entry reads TNF reporter robust z-score 0.34.
With knock-down of ZNHIT6, the record shows TNF reporter robust z-score 1.16.
ZNHIT6 showed TNF reporter robust z-score 2.06.
For ZNHIT6, the values are TNF reporter robust z-score 1.05.
Against ADGRV1, the entry reads TNF reporter robust z-score 0.25.
ADGRV1 scored TNF reporter robust z-score 0.45.
ADGRV1 gave TNF reporter robust z-score 0.28.
Knock-down of ADGRV1 gave: TNF reporter robust z-score 1.26.
With knock-down of CLCA2, the record shows TNF reporter robust z-score -0.59.
Against CLCA2 the deposit lists TNF reporter robust z-score 0.2.
After knock-down of CLCA2, the screen gave TNF reporter robust z-score 0.17.
Against CLCA2, the values are TNF reporter robust z-score -0.02.
Depletion of CES2 came out at: TNF reporter robust z-score 1.52.
CES2 showed TNF reporter robust z-score 0.94.
Silencing of CES2 gave: TNF reporter robust z-score 0.64.
With knock-down of CES2 the results were TNF reporter robust z-score 1.93.
USP17L2 showed TNF reporter robust z-score -0.7.
USP17L2 gave TNF reporter robust z-score 1.33.
Against USP17L2, the entry reads TNF reporter robust z-score 0.01.
After knock-down of USP17L2 the results were TNF reporter robust z-score 0.49.
For PNMA6A, the values are TNF reporter robust z-score 0.46.
PNMA6A scored TNF reporter robust z-score 1.51.
Silencing of PNMA6A gave: TNF reporter robust z-score 2.08.
Depletion of PNMA6A gave: TNF reporter robust z-score 2.29.
For PARD6G the deposit lists TNF reporter robust z-score -0.81.
With knock-down of PARD6G, the record shows TNF reporter robust z-score -0.74.
PARD6G gave TNF reporter robust z-score -0.63.
With knock-down of PARD6G, the record shows TNF reporter robust z-score -0.86.
Silencing of RUNDC3A came out at: TNF reporter robust z-score 0.14.
Against RUNDC3A, the entry reads TNF reporter robust z-score 0.69.
RUNDC3A gave TNF reporter robust z-score 0.09.
With knock-down of RUNDC3A, the screen gave TNF reporter robust z-score 0.44.
ADO scored TNF reporter robust z-score -0.4.
Against ADO, the entry reads TNF reporter robust z-score 0.55.
Depletion of ADO gave: TNF reporter robust z-score -1.02.
Depletion of ADO resulted in: TNF reporter robust z-score -1.25.
Against COL28A1, the entry reads TNF reporter robust z-score -0.17.
Against COL28A1, the values are TNF reporter robust z-score 0.08.
With knock-down of COL28A1, the record shows TNF reporter robust z-score -0.14.
COL28A1 scored TNF reporter robust z-score 0.01.

Already shown: entries from further up.
ZNHIT6 — TNF reporter robust z-score: 0.34
ZNHIT6 — TNF reporter robust z-score: 1.16
ZNHIT6 — TNF reporter robust z-score: 2.06
ZNHIT6 — TNF reporter robust z-score: 1.05
ADGRV1 — TNF reporter robust z-score: 0.25
ADGRV1 — TNF reporter robust z-score: 0.45
ADGRV1 — TNF reporter robust z-score: 0.28
ADGRV1 — TNF reporter robust z-score: 1.26
